Data as given in PubChem BioAssay AID1259308 (NCATS, 2017).

- Assay: 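Candidate targets for better recombinant protein yield in mammalian cells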 (primary screen)
- Cell system: human HEK293 embryonic kidney cells stably expressing firefly luciferase (HEK-CMV-Luc2-Hygro)
- Knock-down reagent: single siRNA against human genes, 0.8 pmol siRNA per well
- Timing: 72 h
- Measured: 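Luciferase light (ONE-Glo) measured on one replicate plate set and viability (CellTiter-Glo) on the other, scaled to a negative control siRNA, with robust z-scores and luciferase per cell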
- Reading the numbers: total luciferase, z-score: higher = more reporter protein produced
- Call rule: 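An siRNA counts as active if its total luciferase robust z-score exceeds 3; genes with two or more such siRNAs out of three were retested with fresh siRNAs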
- Calls: active = raised luciferase; inactive = no rise
In all, the deposit lists about 59,000 reagents; this is a part drawn at random. In the full data, about 1,510 (2.6%) are marked active. 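Calls use total luciferase alone and ignore viability, so some active siRNAs may act by altering cell number.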 Entries without a mark were called inactive. The numbers tell different reagents against one gene apart. Further read-outs or replicates are left out here. No sequences are given here.

The first 2 records as a preview:
RIMS1 #1 → total luciferase, z-score = 1.77
RIMS1 #2 → total luciferase, z-score = -0.382

The listing, from the start:
RIMS1 #1 → total luciferase, z-score = 1.77
RIMS1 #2 → total luciferase, z-score = -0.382
RIMS1 #3 → total luciferase, z-score = 0.768
ZNF581 #1 → total luciferase, z-score = 0.00881
ZNF581 #2 → total luciferase, z-score = 0.0135
ZNF581 #3 → total luciferase, z-score = 0.0588
PBLD #1 → total luciferase, z-score = -0.336
PBLD #2 → total luciferase, z-score = 0.267
PBLD #3 → total luciferase, z-score = -0.423
MARCHF7 #1 → total luciferase, z-score = 1.31
MARCHF7 #2 → total luciferase, z-score = -0.839
MARCHF7 #3 → total luciferase, z-score = 0.117
PEX2 #1 → total luciferase, z-score = 0.714
PEX2 #2 → total luciferase, z-score = 0.184
PEX2 #3 → total luciferase, z-score = -0.646
PPP1R13L #1 → total luciferase, z-score = 7.22 (active)
PPP1R13L #2 → total luciferase, z-score = 0.188
PPP1R13L #3 → total luciferase, z-score = 1.33
ARHGAP25 #1 → total luciferase, z-score = 0.814
ARHGAP25 #2 → total luciferase, z-score = 0.215
ARHGAP25 #3 → total luciferase, z-score = -1.53
